# Measured values: patent US10525115B2 (Immatics Biotechnologies GmbH, priority 2014, dated 2020)
# Tests used:
# primary AML samples = test: HLA class I ligandome analysis (W6/32 immunoaffinity purification, LC-MS/MS) of primary AML samples; design: species or system human; conditions: AML patients (n=15)
# [1] = tested on: cancer tissues in comparison to non-cancerous tissues and organs; test: Presentation profile / over-presentation by label-free LC-MS (XPRESIDENT), tumor versus normal tissues, other proliferative diseases; design: species or system human; conditions: other proliferative diseases / organs (other than AML) that over- or exclusively present the peptide; Table 5
# [2] = HLA class I ligandome, count for the HLA ligand (LiTAP) or, on protein lines, for the source protein (LiTAA)
Substance,Number of positive AMLs (primary AML samples; HLA ligand (LiTAP)),Proliferative disease and location thereof [1],Number of positive AMLs (primary AML samples; [2])
282 (DIKPYIAEY; listed as Homo sapiens) [compound 282],3,"pancreas, adenocarcinoma, thymus, thymoma",
253 (YLDFTNPKV; listed as Homo sapiens) [compound 253],3,"liver, hepatocellular carcinoma, uterine cervix, squamous cell carcinoma",
323 (KLYELHVFTF; listed as Homo sapiens) [compound 323],1,"colon, adenoma",
38 (EVVYRFTAR; listed as Homo sapiens) [compound 38],,"stomach, metastatic, adenocarcinoma",1
119 (DHEGFGFVL; listed as Homo sapiens) [compound 119],,"liver, hepatocellular carcinoma, kidney, renal cell carcinoma",1
307 (RTLNPQMLQKK; listed as Homo sapiens) [compound 307],1,"colon or rectum, testis, seminoma",
240 (EEVKEEVKKF; listed as Homo sapiens) [compound 240],2,"lung, non-small cell lung carcinoma, thymus, thymoma",
317 (DIPSLKLAL; listed as Homo sapiens) [compound 317],1,"breast, carcinoma",
114 (DSISGNLQR; listed as Homo sapiens) [compound 114],,"stomach, metastatic, bone, non-ossifying fibroma",1
267 (SIAAKILSY; listed as Homo sapiens) [compound 267],1,"liver, hepatocellular carcinoma, cancer, colon, adenocarcinoma",
46 (KLYPTLVIR; listed as Homo sapiens) [compound 46],,"stomach, adenocarcinoma, endometrium, adenocarcinoma",4
12 (YVLPLVHSL; listed as Homo sapiens) [compound 12],,"kidney, clear cell renal cell carcinoma, bone, non- ossifying fibroma",1
134 (IIFDRPLLY; listed as Homo sapiens) [compound 134],,"stomach, adenocarcinoma, parathyroid gland, adenoma",3
187 (IIKEKTVVY; listed as Homo sapiens) [compound 187],,"liver, hepatocellular carcinoma, cancer, liver, hepatocellular carcinoma",1
258 (YLDGVHTVF; listed as Homo sapiens) [compound 258],1,"colon or rectum, fibromatosis",
132 (KLNEVIVNK; listed as Homo sapiens) [compound 132],,"lung, non-small cell lung carcinoma, testis, seminoma",3
18 (EIIGKRGIIGY; listed as Homo sapiens) [compound 18],,"colon or rectum, kidney, carcinoma",4
31 (GQLDVRELI; listed as Homo sapiens) [compound 31],,"stomach, skin, basal cell carcinoma",1
300 (VHESPALILLF; listed as Homo sapiens) [compound 300],1,"kidney, clear cell renal cell carcinoma, lipoma",

Substance,Number of positive AMLs (primary AML samples; HLA ligand (LiTAP)),Proliferative disease and location thereof [1],Number of positive AMLs (primary AML samples; [2])
214 (YLLQRAVEV; listed as Homo sapiens) [compound 214],,"colon or rectum, synovial sarcoma",2
141 (ILGGPGTVQGV; listed as Homo sapiens) [compound 141],,"liver, hepatocellular carcinoma, cancer, vulva, squamous cell carcinoma",3
210 (TEKIAQLF; listed as Homo sapiens) [compound 210],,"stomach, adenocarcinoma, ovary, adenocarcinoma",1
15 (YMAELIERL; listed as Homo sapiens) [compound 15],,"colon or rectum, prostate, benign nodular; hyperplasia",3
104 (YLQNHFVGL; listed as Homo sapiens) [compound 104],,"stomach, adenocarcinoma, liver, carcinoid tumor, metastatic",1
314 (DHFTGAIEKL; listed as Homo sapiens) [compound 314],2,"stomach, metastatic, breast, carcinoma",
263 (IEDSRVYEL; listed as Homo sapiens) [compound 263],3,"stomach, metastatic, non-Hodgkin's lymphoma",
1 (AEQFRLEQI; listed as Homo sapiens) [compound 1],,"colon or rectum, lung, small cell carcinoma",1
73 (ESADLIQHY; listed as Homo sapiens) [compound 73],,"pancreas, adenocarcinoma, kidney, renal cell carcinoma",4
127 (DAIKVFVRI; listed as Homo sapiens) [compound 127],,"stomach, adenocarcinoma, kidney, Wilm's tumor",1
287 (NFLRINTI; listed as Homo sapiens) [compound 287],1,"colon or rectum, stomach, adenocarcinoma",
178 (HEIDRYTAI; listed as Homo sapiens) [compound 178],,"kidney, clear cell renal cell carcinoma, non- Hodgkin's lymphoma",1
204 (LPDDKVTAL; listed as Homo sapiens) [compound 204],,"stomach, metastatic, stomach, adenocarcinoma",3
5 (RPVMPSRQI; listed as Homo sapiens) [compound 5],,"colon or rectum, lung, small cell carcinoma",1
310 (VRIGTILIQTNQ; listed as Homo sapiens) [compound 310],1,"stomach, metastatic, breast, carcinoma",
264 (YVHSFLSSGY; listed as Homo sapiens) [compound 264],3,"small Intestine, gastrointestinal stromal tumor",
279 (KELRELLSI; listed as Homo sapiens) [compound 279],1,"colon or rectum, fibromatosis",
17 (TVAEITGSKY; listed as Homo sapiens) [compound 17],,"thyroid gland, nodular hyperplasia",1
196 (EAIKALEV; listed as Homo sapiens) [compound 196],,"stomach, metastatic, lung, neuroendocrine carcinoma",1
